Measurements published in paper PMC12000569.

Target: T1, Myc-tagged IFI6 (UniProt P09912)
T1 sequence: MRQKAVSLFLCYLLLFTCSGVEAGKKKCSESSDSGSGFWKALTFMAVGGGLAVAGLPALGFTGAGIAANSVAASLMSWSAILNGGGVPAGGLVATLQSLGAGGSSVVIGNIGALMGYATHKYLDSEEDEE
Experiment: co-IP; Fig. 6B-F; Flag-, His- and Myc-tagged proteins and their truncation mutants; cell lysate in IP lysis buffer, magnetic beads with selected antibodies, overnight at 4 °C, Western blot; cells not given

M1 domain of HSP90AA1 (His-tagged truncation mutant) (domain or fragment)
binding: binds

Results are given in words; binding and its absence hold for the method and conditions named. In cells and extracts the contact can be indirect. Binding calls can cover weak binding; strength is not graded here. Tags and fused reporters may be left off the sequences shown.
